# Measured values reported in the supplement of paper PMC8728848.
# This is one part of the list.
# B1: PX14343C-bfa-541-26-541 (Bacteroides fragilis) (protein)
# chain: KAPLDEIADDSFWSDETLVKYYVNDLYSEISVDGLQLQENRSDNSVSAQRDKYRASWFKFNYDMVSASDPQDDDVWEDYYVKVRKCNRFFERIGTSTIEESEKSRLTGEVHFLRAMFYFEMVKRYGGVILLDKVLTMEDNWEIPRSSEKECYDFILEDLKKATEMLPASYGSREKGRATKGAAYALKSRVELYDKRYEDVIKSCAEVYKLGYELVDGTTPEKYRSIWWTTNKDNKEIIFDVQYKSPDVYNNMMVCNMVTYINDKYGDRGWGGLGPTQELIDAFEMADGTPATQYSQAPADQVFDINTCGIYEGREPRFYANIVFHGSQIFFNADKGAVTVDRYLMDTPDKGDGSLTGYNVWKWIDYDNYNYPYAGAGSPDFSTNWIILRYAEIYLNDAEARLETGDVEGARKAVNMIRQRVGLPDLTESDPEKLRELIRKERRIEFAFEEQRFYDVRRWKIGPETQTTLHGVRFVSPTEFKVTKTDIRTWNDRLYLTPVPHDEIVRSSVLKQNLGY
# Experiments:
# Assay in all cases: glycan array binding signal (z-score within array); higher = stronger binding
# Conditions in all cases: glycan notation: IUPAC condensed, linker removed
# [1] = molecular target: Neu5Ac(a2-3)Gal(b1-3)[Fuc(a1-4)]GlcNAc
# Procedure, shortened: (§1)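 The Consortium for Functional Glycomics database supplied 3228 glycan arrays, of which those lacking an available protein sequence were dropped. The binding signal, a within-array Z-score, was averaged across arrays of the same protein sequence and across linkers. Negative scores can be read as non-binding.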
# [2] = molecular target: Neu5Ac(a2-3)Gal(b1-3)[Fuc(a1-4)]GlcNAc(b1-3)Gal(b1-3)[Fuc(a1-4)]GlcNAc
# Procedure, shortened: as §1
# [3] = molecular target: Neu5Ac(a2-3)Gal(b1-3)[Fuc(a1-4)]GlcNAc(b1-3)Gal(b1-4)[Fuc(a1-3)]GlcNAc
# Procedure, shortened: as §1
# [4] = molecular target: Neu5Ac(a2-3)Gal(b1-3)[GlcNAc(b1-6)]GalNAc
# Procedure, shortened: as §1
# [5] = molecular target: Neu5Ac(a2-3)Gal(b1-3)[Neu5Ac(a2-6)]GalNAc
# Procedure, shortened: as §1
# [6] = molecular target: Neu5Ac(a2-3)Gal(b1-3)[Neu5Ac(a2-6)]GlcNAc(b1-3)[Fuc(a1-3)[Gal(b1-4)]GlcNAc(b1-6)]Gal(b1-4)Glc
# Procedure, shortened: as §1
# [7] = molecular target: Neu5Ac(a2-3)Gal(b1-3)]Neu5Ac(a2-3)Gal(b1-4)]GlcNAc
# Procedure, shortened: as §1
# Neu5Ac(a2-3)Gal(b1-4)Glc = molecular target: Neu5Ac(a2-3)Gal(b1-4)Glc
# Procedure, shortened: as §1
# [8] = molecular target: Neu5Ac(a2-3)Gal(b1-4)GlcNAc
# Procedure, shortened: as §1
# [9] = molecular target: Neu5Ac(a2-3)Gal(b1-4)GlcNAc(b1-2)Man
# Procedure, shortened: as §1
# [10] = molecular target: Neu5Ac(a2-3)Gal(b1-4)GlcNAc(b1-2)Man(a1-3)[GlcNAc(b1-4)][Neu5Ac(a2-3)Gal(b1-4)GlcNAc(b1-2)Man(a1-6)]Man(b1-4)GlcNAc(b1-4)GlcNAc
# Procedure, shortened: as §1
# [11] = molecular target: Neu5Ac(a2-3)Gal(b1-4)GlcNAc(b1-2)Man(a1-3)[Neu5Ac(a2-3)Gal(b1-4)GlcNAc(b1-2)Man(a1-6)]Man(b1-4)GlcNAc(b1-4)GlcNAc
# Procedure, shortened: as §1
# [12] = molecular target: Neu5Ac(a2-3)Gal(b1-4)GlcNAc(b1-2)Man(a1-3)[Neu5Ac(a2-3)Gal(b1-4)GlcNAc(b1-2)Man(a1-6)]Man(b1-4)GlcNAc(b1-4)[Fuc(a1-6)]GlcNAc
# Procedure, shortened: as §1
# [13] = molecular target: Neu5Ac(a2-3)Gal(b1-4)GlcNAc(b1-2)Man(a1-3)[Neu5Ac(a2-6)Gal(b1-4)GlcNAc(b1-2)Man(a1-6)]Man(b1-4)GlcNAc(b1-4)GlcNAc
# Procedure, shortened: as §1
# [14] = molecular target: Neu5Ac(a2-3)Gal(b1-4)GlcNAc(b1-2)[Neu5Ac(a2-3)Gal(b1-4)GlcNAc(b1-4)]Man(a1-3)[GlcNAc(b1-4)][Neu5Ac(a2-3)Gal(b1-4)GlcNAc(b1-2)[Neu5Ac(a2-3)Gal(b1-4)GlcNAc(b1-6)]Man(a1-6)]Man(b1-4)GlcNAc(b1-4)GlcNAc
# Procedure, shortened: as §1
# [15] = molecular target: Neu5Ac(a2-3)Gal(b1-4)GlcNAc(b1-2)[Neu5Ac(a2-3)Gal(b1-4)GlcNAc(b1-4)]Man(a1-3)[GlcNAc(b1-4)][Neu5Ac(a2-3)Gal(b1-4)GlcNAc(b1-4)Man(a1-6)]Man(b1-4)GlcNAc(b1-4)GlcNAc
# Procedure, shortened: as §1
# [16] = molecular target: Neu5Ac(a2-3)Gal(b1-4)GlcNAc(b1-2)[Neu5Ac(a2-3)Gal(b1-4)GlcNAc(b1-6)]Man(a1-6)[Neu5Ac(a2-3)Gal(b1-4)GlcNAc(b1-2)Man(a1-3)]Man(b1-4)GlcNAc(b1-4)GlcNAc
# Procedure, shortened: as §1
# [17] = molecular target: Neu5Ac(a2-3)Gal(b1-4)GlcNAc(b1-2)[Neu5Ac(a2-3)Gal(b1-4)GlcNAc(b1-6)]Man(a1-6)[Neu5Ac(a2-3)Gal(b1-4)GlcNAc(b1-2)Man(a1-3)][GlcNAc(b1-4)]Man(b1-4)GlcNAc(b1-4)GlcNAc
# Procedure, shortened: as §1
# [18] = molecular target: Neu5Ac(a2-3)Gal(b1-4)GlcNAc(b1-3)Gal
# Procedure, shortened: as §1
# [19] = molecular target: Neu5Ac(a2-3)Gal(b1-4)GlcNAc(b1-3)Gal(b1-3)GlcNAc
# Procedure, shortened: as §1
# [20] = molecular target: Neu5Ac(a2-3)Gal(b1-4)GlcNAc(b1-3)Gal(b1-4)GlcNAc
# Procedure, shortened: as §1
# [21] = molecular target: Neu5Ac(a2-3)Gal(b1-4)GlcNAc(b1-3)Gal(b1-4)GlcNAc(b1-2)Man(a1-3)[Neu5Ac(a2-3)Gal(b1-4)GlcNAc(b1-3)Gal(b1-4)GlcNAc(b1-2)Man(a1-6)]Man(b1-4)GlcNAc(b1-4)GlcNAc
# Procedure, shortened: as §1
# [22] = molecular target: Neu5Ac(a2-3)Gal(b1-4)GlcNAc(b1-3)Gal(b1-4)GlcNAc(b1-3)Gal(b1-4)GlcNAc
# Procedure, shortened: as §1
# [23] = molecular target: Neu5Ac(a2-3)Gal(b1-4)GlcNAc(b1-3)Gal(b1-4)GlcNAc(b1-3)Gal(b1-4)GlcNAc(b1-2)Man(a1-3)[Neu5Ac(a2-3)Gal(b1-4)GlcNAc(b1-3)Gal(b1-4)GlcNAc(b1-3)Gal(b1-4)GlcNAc(b1-2)Man(a1-6)]GalNAc
# Procedure, shortened: as §1
# [24] = molecular target: Neu5Ac(a2-3)Gal(b1-4)GlcNAc(b1-3)Gal(b1-4)GlcNAc(b1-3)GalNAc
# Procedure, shortened: as §1
# [25] = molecular target: Neu5Ac(a2-3)Gal(b1-4)GlcNAc(b1-3)Gal(b1-4)GlcNAc(b1-3)[Neu5Ac(a2-3)Gal(b1-4)GlcNAc(b1-3)Gal(b1-4)GlcNAc(b1-6)]GalNAc
# Procedure, shortened: as §1
# [26] = molecular target: Neu5Ac(a2-3)Gal(b1-4)GlcNAc(b1-3)Gal(b1-4)GlcNAc(b1-6)[Gal(b1-3)]GalNAc
# Procedure, shortened: as §1
# [27] = molecular target: Neu5Ac(a2-3)Gal(b1-4)GlcNAc(b1-3)Gal(b1-4)[Fuc(a1-3)]GlcNAc
# Procedure, shortened: as §1
# [28] = molecular target: Neu5Ac(a2-3)Gal(b1-4)GlcNAc(b1-3)GalNAc
# Procedure, shortened: as §1
# [29] = molecular target: Neu5Ac(a2-3)Gal(b1-4)GlcNAc(b1-3)[Neu5Ac(a2-3)Gal(b1-4)GlcNAc(b1-6)]GalNAc
# Procedure, shortened: as §1
binder,measurement,setting,value
B1,glycan array binding signal (z-score),[1],-0.591
same,glycan array binding signal (z-score),[2],0.555
same,glycan array binding signal (z-score),[3],-0.671
same,glycan array binding signal (z-score),[4],-0.831
same,glycan array binding signal (z-score),[5],0.409
same,glycan array binding signal (z-score),[6],-0.747
same,glycan array binding signal (z-score),[7],-0.364
same,glycan array binding signal (z-score),Neu5Ac(a2-3)Gal(b1-4)Glc,-0.175
same,glycan array binding signal (z-score),[8],-0.554
same,glycan array binding signal (z-score),[9],0.589
same,glycan array binding signal (z-score),[10],0.104
same,glycan array binding signal (z-score),[11],-0.388
same,glycan array binding signal (z-score),[12],-0.956
same,glycan array binding signal (z-score),[13],-0.28
same,glycan array binding signal (z-score),[14],0.102
same,glycan array binding signal (z-score),[15],-0.071
same,glycan array binding signal (z-score),[16],0.43
same,glycan array binding signal (z-score),[17],-0.471
same,glycan array binding signal (z-score),[18],-1.26
same,glycan array binding signal (z-score),[19],-0.417
same,glycan array binding signal (z-score),[20],-1.06
same,glycan array binding signal (z-score),[21],0.39
same,glycan array binding signal (z-score),[22],-0.847
same,glycan array binding signal (z-score),[23],5.05
same,glycan array binding signal (z-score),[24],-0.539
same,glycan array binding signal (z-score),[25],-1.06
same,glycan array binding signal (z-score),[26],-0.717
same,glycan array binding signal (z-score),[27],-0.402
same,glycan array binding signal (z-score),[28],0.316
same,glycan array binding signal (z-score),[29],-0.461

# A different layout for some results above:
binder | measurement | setting | value
B1 | glycan array binding signal (z-score) | Neu5Ac(a2-3)Gal(b1-4)Glc | -0.175
same | glycan array binding signal (z-score) | [10] | 0.104
